Data as given in the supplement of paper PMC10849652.
This is one part of the list.

Protein sequences, listed by entry. Tags and fused reporters are not part of them. Lines headed by an entry give the natural chain unless they say otherwise; changes in a name come on top.
UniProt Q8IZ81: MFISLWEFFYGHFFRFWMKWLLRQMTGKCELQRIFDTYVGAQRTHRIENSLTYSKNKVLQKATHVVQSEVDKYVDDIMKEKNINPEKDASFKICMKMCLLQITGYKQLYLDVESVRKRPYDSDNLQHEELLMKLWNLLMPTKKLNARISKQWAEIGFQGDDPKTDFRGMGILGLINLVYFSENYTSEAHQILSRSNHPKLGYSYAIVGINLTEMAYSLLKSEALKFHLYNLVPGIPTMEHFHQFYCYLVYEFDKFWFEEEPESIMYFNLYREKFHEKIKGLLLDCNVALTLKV
UniProt Q15717, whole entry, looked up: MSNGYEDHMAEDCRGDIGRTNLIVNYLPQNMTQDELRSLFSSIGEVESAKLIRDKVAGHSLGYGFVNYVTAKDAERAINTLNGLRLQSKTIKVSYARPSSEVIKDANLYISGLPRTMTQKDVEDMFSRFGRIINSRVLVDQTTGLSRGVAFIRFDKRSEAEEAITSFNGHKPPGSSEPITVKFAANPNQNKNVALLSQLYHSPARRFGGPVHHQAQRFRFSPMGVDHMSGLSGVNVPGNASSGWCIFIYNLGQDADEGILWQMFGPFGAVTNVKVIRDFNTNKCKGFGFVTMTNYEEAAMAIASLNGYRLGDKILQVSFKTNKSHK
UniProt P55010, whole entry, looked up: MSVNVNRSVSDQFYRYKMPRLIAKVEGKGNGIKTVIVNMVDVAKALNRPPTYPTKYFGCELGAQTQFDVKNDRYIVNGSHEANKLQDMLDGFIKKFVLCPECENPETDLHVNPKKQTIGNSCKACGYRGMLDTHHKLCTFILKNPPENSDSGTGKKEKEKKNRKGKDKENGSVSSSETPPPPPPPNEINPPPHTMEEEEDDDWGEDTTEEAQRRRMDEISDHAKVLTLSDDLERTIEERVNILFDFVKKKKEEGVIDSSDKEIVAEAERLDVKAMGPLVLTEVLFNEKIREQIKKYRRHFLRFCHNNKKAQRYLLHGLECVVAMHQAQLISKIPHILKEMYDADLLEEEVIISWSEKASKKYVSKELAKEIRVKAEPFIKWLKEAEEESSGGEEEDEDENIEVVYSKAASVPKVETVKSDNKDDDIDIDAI
UniProt O43768: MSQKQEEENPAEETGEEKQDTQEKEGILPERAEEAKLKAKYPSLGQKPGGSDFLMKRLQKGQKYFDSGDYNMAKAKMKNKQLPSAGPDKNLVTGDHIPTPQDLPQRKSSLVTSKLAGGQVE
UniProt P11171, whole entry, looked up: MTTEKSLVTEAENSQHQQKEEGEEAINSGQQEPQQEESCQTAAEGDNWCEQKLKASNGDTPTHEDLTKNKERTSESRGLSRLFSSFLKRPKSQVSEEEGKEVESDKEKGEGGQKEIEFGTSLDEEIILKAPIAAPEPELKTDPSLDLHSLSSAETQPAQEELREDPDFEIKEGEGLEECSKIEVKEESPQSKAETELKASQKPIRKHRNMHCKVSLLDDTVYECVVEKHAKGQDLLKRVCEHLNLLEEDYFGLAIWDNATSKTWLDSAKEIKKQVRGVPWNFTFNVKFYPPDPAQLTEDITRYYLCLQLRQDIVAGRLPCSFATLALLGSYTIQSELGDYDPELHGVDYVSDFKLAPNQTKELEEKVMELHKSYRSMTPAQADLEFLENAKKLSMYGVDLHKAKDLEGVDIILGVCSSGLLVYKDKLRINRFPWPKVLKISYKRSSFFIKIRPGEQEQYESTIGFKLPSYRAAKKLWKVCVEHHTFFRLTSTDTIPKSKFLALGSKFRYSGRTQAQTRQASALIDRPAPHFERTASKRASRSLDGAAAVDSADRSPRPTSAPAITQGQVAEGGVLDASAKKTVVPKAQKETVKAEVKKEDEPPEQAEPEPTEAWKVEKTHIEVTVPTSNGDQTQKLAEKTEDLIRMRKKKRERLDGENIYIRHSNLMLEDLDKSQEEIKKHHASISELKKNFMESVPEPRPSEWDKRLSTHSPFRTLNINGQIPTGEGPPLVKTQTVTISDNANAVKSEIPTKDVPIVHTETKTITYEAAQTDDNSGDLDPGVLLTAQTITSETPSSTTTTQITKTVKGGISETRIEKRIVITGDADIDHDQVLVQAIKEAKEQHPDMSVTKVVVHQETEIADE
UniProt Q13144, whole entry, looked up: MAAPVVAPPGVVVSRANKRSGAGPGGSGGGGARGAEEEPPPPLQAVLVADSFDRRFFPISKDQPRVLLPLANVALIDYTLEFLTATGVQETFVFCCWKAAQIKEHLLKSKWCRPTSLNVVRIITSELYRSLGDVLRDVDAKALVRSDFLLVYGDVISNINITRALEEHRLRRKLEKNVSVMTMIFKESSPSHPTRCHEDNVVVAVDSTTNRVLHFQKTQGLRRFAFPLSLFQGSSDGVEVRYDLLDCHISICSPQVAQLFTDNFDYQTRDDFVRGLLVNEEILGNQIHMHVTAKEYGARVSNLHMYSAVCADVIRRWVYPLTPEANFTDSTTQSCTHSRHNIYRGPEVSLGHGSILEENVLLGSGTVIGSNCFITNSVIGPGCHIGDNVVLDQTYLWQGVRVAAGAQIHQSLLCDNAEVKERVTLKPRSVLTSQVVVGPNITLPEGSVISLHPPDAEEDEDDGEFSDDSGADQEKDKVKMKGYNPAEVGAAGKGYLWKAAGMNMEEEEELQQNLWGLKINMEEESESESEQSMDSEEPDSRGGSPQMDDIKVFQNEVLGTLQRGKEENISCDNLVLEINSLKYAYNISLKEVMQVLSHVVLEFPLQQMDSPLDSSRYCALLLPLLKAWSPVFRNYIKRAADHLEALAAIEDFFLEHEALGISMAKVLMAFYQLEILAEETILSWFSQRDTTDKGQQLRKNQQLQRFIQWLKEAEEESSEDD
UniProt Q9H4M9: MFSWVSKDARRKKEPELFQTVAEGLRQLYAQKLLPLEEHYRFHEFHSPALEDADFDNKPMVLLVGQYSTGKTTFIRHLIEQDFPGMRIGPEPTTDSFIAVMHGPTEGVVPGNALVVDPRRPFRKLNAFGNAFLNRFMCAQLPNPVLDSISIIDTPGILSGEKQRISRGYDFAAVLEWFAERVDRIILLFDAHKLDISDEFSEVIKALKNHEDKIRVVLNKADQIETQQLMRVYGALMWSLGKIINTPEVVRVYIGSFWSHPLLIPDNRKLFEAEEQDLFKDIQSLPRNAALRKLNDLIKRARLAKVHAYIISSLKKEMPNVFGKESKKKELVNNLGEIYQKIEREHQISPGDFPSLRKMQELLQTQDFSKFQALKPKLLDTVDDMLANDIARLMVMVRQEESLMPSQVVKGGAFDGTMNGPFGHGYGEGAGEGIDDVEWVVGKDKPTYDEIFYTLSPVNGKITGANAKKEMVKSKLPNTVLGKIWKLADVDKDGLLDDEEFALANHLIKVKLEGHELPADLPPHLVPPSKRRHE
UniProt Q0PNE2: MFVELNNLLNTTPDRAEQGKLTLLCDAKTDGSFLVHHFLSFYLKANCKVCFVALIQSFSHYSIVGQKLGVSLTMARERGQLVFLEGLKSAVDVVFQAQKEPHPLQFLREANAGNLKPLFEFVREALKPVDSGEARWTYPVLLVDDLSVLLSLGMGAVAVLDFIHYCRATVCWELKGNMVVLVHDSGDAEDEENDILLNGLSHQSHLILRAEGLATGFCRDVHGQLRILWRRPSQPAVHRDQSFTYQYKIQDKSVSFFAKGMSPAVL
UniProt Q9UHY7: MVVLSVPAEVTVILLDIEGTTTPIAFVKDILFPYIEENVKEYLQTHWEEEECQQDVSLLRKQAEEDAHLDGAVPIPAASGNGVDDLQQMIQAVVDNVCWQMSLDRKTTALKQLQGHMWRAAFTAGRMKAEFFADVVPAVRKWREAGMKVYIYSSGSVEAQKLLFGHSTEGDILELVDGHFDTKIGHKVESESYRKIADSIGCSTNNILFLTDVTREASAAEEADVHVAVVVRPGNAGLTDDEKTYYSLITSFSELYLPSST
UniProt Q53HC9: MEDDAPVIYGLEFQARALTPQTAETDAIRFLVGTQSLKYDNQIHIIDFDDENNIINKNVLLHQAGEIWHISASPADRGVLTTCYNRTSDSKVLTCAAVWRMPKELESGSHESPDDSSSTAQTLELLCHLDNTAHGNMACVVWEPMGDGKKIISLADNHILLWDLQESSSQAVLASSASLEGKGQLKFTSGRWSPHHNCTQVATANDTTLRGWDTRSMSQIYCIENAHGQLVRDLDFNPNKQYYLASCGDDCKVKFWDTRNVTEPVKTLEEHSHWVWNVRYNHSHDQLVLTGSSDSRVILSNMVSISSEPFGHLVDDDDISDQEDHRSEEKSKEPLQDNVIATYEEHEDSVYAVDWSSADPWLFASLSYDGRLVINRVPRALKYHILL
UniProt Q8NFI3: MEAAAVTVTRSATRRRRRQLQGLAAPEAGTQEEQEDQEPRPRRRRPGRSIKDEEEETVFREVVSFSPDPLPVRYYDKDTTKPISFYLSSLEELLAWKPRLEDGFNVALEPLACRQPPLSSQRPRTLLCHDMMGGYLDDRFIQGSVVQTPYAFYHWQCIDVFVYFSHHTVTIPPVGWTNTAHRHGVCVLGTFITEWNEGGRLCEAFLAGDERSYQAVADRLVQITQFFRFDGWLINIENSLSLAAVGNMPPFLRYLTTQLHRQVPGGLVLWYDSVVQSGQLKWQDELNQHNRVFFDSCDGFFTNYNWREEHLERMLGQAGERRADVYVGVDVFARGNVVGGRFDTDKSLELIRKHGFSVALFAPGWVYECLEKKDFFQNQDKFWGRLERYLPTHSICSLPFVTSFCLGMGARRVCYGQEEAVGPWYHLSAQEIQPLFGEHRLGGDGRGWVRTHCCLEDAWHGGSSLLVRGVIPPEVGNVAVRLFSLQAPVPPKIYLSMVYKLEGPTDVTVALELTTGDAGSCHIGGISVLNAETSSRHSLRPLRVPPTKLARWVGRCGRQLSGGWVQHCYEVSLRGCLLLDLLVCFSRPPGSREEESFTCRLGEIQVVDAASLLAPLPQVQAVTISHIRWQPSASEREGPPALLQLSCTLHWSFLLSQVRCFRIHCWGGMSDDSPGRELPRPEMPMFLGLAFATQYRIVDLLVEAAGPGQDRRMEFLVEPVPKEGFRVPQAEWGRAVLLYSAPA
UniProt O75821, whole entry, looked up: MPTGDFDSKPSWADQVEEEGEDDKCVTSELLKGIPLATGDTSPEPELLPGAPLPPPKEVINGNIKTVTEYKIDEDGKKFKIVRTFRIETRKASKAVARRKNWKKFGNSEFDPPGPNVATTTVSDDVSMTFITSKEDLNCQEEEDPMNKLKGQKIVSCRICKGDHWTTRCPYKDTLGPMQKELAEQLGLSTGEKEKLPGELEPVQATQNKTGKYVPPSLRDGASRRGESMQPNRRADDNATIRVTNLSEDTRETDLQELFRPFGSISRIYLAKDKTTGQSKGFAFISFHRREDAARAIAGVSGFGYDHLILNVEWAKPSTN
UniProt Q99613, whole entry, looked up: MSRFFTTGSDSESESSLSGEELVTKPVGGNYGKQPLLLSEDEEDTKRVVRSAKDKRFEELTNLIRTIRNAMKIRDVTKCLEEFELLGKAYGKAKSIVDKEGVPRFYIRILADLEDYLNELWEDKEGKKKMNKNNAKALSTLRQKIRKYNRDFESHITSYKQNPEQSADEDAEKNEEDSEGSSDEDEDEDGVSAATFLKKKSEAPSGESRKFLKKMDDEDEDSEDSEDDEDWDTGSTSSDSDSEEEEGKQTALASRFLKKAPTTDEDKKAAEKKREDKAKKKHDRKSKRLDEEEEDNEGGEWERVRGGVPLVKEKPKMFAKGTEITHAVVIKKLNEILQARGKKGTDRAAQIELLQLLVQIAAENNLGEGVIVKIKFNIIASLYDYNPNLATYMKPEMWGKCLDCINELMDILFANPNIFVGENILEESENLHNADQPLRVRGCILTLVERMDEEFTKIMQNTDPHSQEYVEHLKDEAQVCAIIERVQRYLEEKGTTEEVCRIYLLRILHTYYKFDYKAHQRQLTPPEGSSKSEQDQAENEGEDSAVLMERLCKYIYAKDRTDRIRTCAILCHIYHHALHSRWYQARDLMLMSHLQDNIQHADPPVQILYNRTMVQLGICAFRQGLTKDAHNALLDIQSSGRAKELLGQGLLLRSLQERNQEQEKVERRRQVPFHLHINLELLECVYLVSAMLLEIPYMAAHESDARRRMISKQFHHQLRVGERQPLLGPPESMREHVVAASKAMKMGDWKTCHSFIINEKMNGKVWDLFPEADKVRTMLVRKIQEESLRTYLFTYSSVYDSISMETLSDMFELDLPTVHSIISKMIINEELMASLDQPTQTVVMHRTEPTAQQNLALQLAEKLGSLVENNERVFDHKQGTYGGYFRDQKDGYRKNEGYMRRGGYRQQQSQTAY
UniProt O43402: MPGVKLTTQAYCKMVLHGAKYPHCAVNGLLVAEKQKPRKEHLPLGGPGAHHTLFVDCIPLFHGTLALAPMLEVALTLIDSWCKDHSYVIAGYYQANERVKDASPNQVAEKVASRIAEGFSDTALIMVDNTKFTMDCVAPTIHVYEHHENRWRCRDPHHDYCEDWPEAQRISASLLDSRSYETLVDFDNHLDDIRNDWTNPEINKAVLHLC

Key:
Experiment in all cases: log2 fold change, soluble protein after heating vs DMSO (PISA); higher = thermal stabilisation; K562 cells, 10 uM, 30 min; active = over 0.2 and 3.5 SD of the protein, either way, in both replicates (recomputed)
[1] = compound: CC1=C(C=C(C=C1)NC(=O)C2=CC(=CC=C2)C(C)(C)C#N)NC3=CC4=C(C=C3)N=CN(C4=O)C
How it was run: (§1)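 Thermal stability values are relative to control samples and come from duplicates. They are expressed as log2 fold changes. For measurement, K562 cells (2×10^6 cells/mL) received 10 μM compound for 30 min, and aliquots were heated for 3 min over 48°C-58°C, pooled, and extracted at 4°C in PBS with 0.5% NP-40. Soluble protein, the supernatant after 21,000xg for 90 min, was quantified by TMTpro 16plex LC-MS/MS with equalised channel sums.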

[2] = compound: CC1=C(C=C(C=C1)NC(=O)C2=CC(=CC=C2)N(C)C)NC(=O)C3=CC=C(C=C3)O
How it was run: as §1

[3] = compound: CC1=CC=C(C=C1)SC2=C3C=C(SC3=CN=C2)C(=O)N
How it was run: as §1

[4] = compound: CC1=NC(=CC=C1)C2=C(N=C(N2)C(C)(C)C)C3=CC4=NC=CN=C4C=C3
How it was run: as §1

Nexturastat A = compound: CCCCN(Cc1ccc(C(=O)NO)cc1)C(=O)Nc1ccccc1 [Nexturastat A]
How it was run: as §1

vemurafenib = compound: CCCS(=O)(=O)Nc1ccc(F)c(C(=O)c2c[nH]c3ncc(-c4ccc(Cl)cc4)cc23)c1F [vemurafenib]
How it was run: as §1

[5] = compound: CCCS(=O)(=O)Nc1ccc(F)c(C(=O)c2c[nH]c3ncc(Cl)cc23)c1F
How it was run: as §1

[6] = compound: CCCc1cc(C)[nH]c(=O)c1CNC(=O)c1cc(-c2ccnc(N3CCN(C)CC3)c2)cc2c1cnn2C(C)C
How it was run: as §1

givinostat = compound: CCN(CC)Cc1ccc2cc(COC(=O)Nc3ccc(C(=O)NO)cc3)ccc2c1 [givinostat]
How it was run: as §1

barasertib = compound: CCN(CCCOc1ccc2c(Nc3cc(CC(=O)Nc4cccc(F)c4)[nH]n3)ncnc2c1)CCOP(=O)(O)O [barasertib]
How it was run: as §1

[7] = compound: CC[C@@H]1C(=O)N(C)c2cnc(Nc3ccc(C(=O)NC4CCN(C)CC4)cc3OC)nc2N1C1CCCC1
How it was run: as §1

volasertib = compound: CC[C@@H]1C(=O)N(C)c2cnc(Nc3ccc(C(=O)N[C@H]4CC[C@H](N5CCN(CC6CC6)CC5)CC4)cc3OC)nc2N1C(C)C [volasertib]
How it was run: as §1

[8] = compound: CC[C@H](C)N1C=C(C2=C(C=C(C=C21)C3=CN=C(C=C3)N4CCNCC4)C(=O)NCC5=C(C=C(NC5=O)C)C)C
How it was run: as §1

epoxomicin = compound: CC[C@H](C)[C@@H](C(=O)N[C@@H]([C@@H](C)O)C(=O)N[C@@H](CC(C)C)C(=O)[C@]1(CO1)C)NC(=O)[C@H]([C@@H](C)CC)N(C)C(=O)C [epoxomicin]
How it was run: as §1

[9] = compound: CCn1c(C(=O)N(C2CC2)C2CC2)cc2c3c(ncn3C)c(Nc3cc(C)n(C)n3)nc21
How it was run: as §1

[10] = compound: CCn1cc(-c2ccnc3[nH]c(-c4cccc(CN(C)C)c4)cc23)c(-c2ccc(NC(=O)N(C)C)cc2)n1
How it was run: as §1

[11] = compound: CN(C)CC(=O)Nc1ccc2[nH]c(=O)c3ccccc3c2c1
How it was run: as §1

rosiglitazone = compound: CN(CCOC1=CC=C(C=C1)C[C@H]2C(=O)NC(=O)S2)C3=CC=CC=N3 (racemic) [rosiglitazone]
How it was run: as §1

[12] = compound: CN1C2=C(C3=C1C(=O)N(N=C3)CC4=CC(=CC=C4)N)SC(=C2)S(=O)C
How it was run: as §1

[13] = compound: CN1CCC(CNc2ccc3ncc(-c4cccc(OC(F)(F)F)c4)n3n2)CC1
How it was run: as §1

Measured: log2 fold change

ELMOD2 (UniProt Q8IZ81)
inactive: [1] 0.003 | [2] 0.043 | [3] -0.009 | [4] 0.025 | Nexturastat A 0.047 | vemurafenib -0.008 | [5] -0.045 | [6] -0.01 | givinostat -0.01 | barasertib -0.015 | [7] -0.004 | volasertib -0.1 | [8] 0.005 | epoxomicin -0.028 | [9] 0.008 | [10] 0.001 | [11] 0.007 | rosiglitazone 0.082 | [12] -0.057 | [13] -0.002

EMC1 (UniProt Q8N766)
inactive: [1] 0.007 | [2] 0.022 | [3] 0.017 | [4] 0.026 | Nexturastat A -0.015 | vemurafenib 0.014 | [5] 0.009 | [6] -0.005 | givinostat 0.005 | barasertib -0.002 | [7] -0.001 | volasertib -0.004 | [8] 0.001 | epoxomicin 0.037 | [9] -0.017 | [10] 0.007 | [11] -0.024 | rosiglitazone 0 | [12] -0.011 | [13] 0.041

ELAVL1 isoform 2 (UniProt Q15717)
inactive: [1] 0.099 | [2] 0.01 | [3] -0.117 | [4] 0.041 | Nexturastat A 0.267 | vemurafenib 0.083 | [5] 0.029 | [6] 0.081 | givinostat 0.111 | barasertib -0.009 | [7] 0.147 | volasertib -0.262 | [8] 0.009 | epoxomicin -0.105 | [9] -0.031 | [10] 0.167 | [11] -0.075 | rosiglitazone -0.098 | [12] 0.311 | [13] 0.014

Two neighbouring entries out of the list so far, quoted:
ELMOD2 (UniProt Q8IZ81)
inactive: [1] 0.003 | [2] 0.043 | [3] -0.009 | [4] 0.025 | Nexturastat A 0.047 | vemurafenib -0.008 | [5] -0.045 | [6] -0.01 | givinostat -0.01 | barasertib -0.015 | [7] -0.004 | volasertib -0.1 | [8] 0.005 | epoxomicin -0.028 | [9] 0.008 | [10] 0.001 | [11] 0.007 | rosiglitazone 0.082 | [12] -0.057 | [13] -0.002

EMC1 (UniProt Q8N766)
inactive: [1] 0.007 | [2] 0.022 | [3] 0.017 | [4] 0.026 | Nexturastat A -0.015 | vemurafenib 0.014 | [5] 0.009 | [6] -0.005 | givinostat 0.005 | barasertib -0.002 | [7] -0.001 | volasertib -0.004 | [8] 0.001 | epoxomicin 0.037 | [9] -0.017 | [10] 0.007 | [11] -0.024 | rosiglitazone 0 | [12] -0.011 | [13] 0.041

Later entries

EIF5 (UniProt P55010)
inactive: [1] 0.027 | [2] -0.035 | [3] 0.012 | [4] 0.025 | Nexturastat A -0.033 | vemurafenib 0.012 | [5] 0.039 | [6] -0.039 | givinostat -0.06 | barasertib 0.025 | [7] -0.066 | volasertib -0.163 | [8] 0.029 | epoxomicin 0.012 | [9] -0.02 | [10] -0.022 | [11] 0.031 | rosiglitazone 0.03 | [12] -0.101 | [13] -0.01

ENSA isoform 3 (UniProt O43768)
inactive: [1] -0.039 | [2] -0.013 | [3] -0.004 | [4] 0.055 | Nexturastat A -0.187 | vemurafenib -0.024 | [5] -0.032 | [6] -0.03 | givinostat -0.109 | barasertib -0.012 | [7] -0.019 | volasertib 0.147 | [8] -0.044 | epoxomicin -0.006 | [9] 0.021 | [10] 0.011 | [11] -0.043 | rosiglitazone 0.001 | [12] -0.049 | [13] -0.04

EPB41 (UniProt P11171)
inactive: [1] 0.019 | [2] -0.026 | [3] -0.007 | [4] 0.003 | Nexturastat A -0.033 | vemurafenib 0.01 | [5] 0.003 | [6] 0.043 | givinostat -0.027 | barasertib 0.01 | [7] -0.043 | volasertib -0.082 | [8] 0.035 | epoxomicin 0.005 | [9] 0.031 | [10] 0 | [11] -0.033 | rosiglitazone 0.017 | [12] -0.022 | [13] -0.074

EIF2B5 (UniProt Q13144)
inactive: [1] 0.035 | [2] -0.006 | [3] -0.015 | [4] 0.009 | Nexturastat A 0.064 | vemurafenib 0.028 | [5] 0.056 | [6] 0.034 | givinostat -0.031 | barasertib 0.008 | [7] -0.054 | volasertib -0.149 | [8] 0.021 | epoxomicin 0.001 | [9] 0.022 | [10] 0.036 | [11] 0.014 | rosiglitazone -0.013 | [12] -0.023 | [13] 0.114

EHD1 (UniProt Q9H4M9)
inactive: [1] -0.006 | [2] 0.014 | [3] 0.018 | [4] 0.043 | Nexturastat A -0.071 | vemurafenib 0.036 | [5] 0.031 | [6] -0.017 | givinostat 0.033 | barasertib 0.014 | [7] -0.052 | volasertib -0.106 | [8] 0.035 | epoxomicin 0.049 | [9] 0.013 | [10] -0.029 | [11] 0.036 | rosiglitazone 0.041 | [12] -0.047 | [13] -0.051

ELP6 (UniProt Q0PNE2)
inactive: [1] 0.005 | [2] 0.02 | [3] 0.02 | [4] -0.007 | Nexturastat A 0.015 | vemurafenib -0.014 | [5] -0.001 | [6] -0.07 | givinostat -0.001 | barasertib -0.041 | [7] 0.042 | volasertib 0.009 | [8] -0.026 | epoxomicin -0.018 | [9] 0.013 | [10] -0.002 | [11] -0.003 | rosiglitazone 0.017 | [12] -0.077 | [13] 0.021

ENOPH1 (UniProt Q9UHY7)
inactive: [1] 0.062 | [2] -0.017 | [3] 0.029 | [4] 0.008 | Nexturastat A 0.025 | vemurafenib 0.154 | [5] 0.096 | [6] 0.049 | givinostat 0.152 | barasertib 0.1 | [7] -0.042 | volasertib -0.182 | [8] 0.103 | epoxomicin 0.027 | [9] -0.154 | [10] -0.15 | [11] 0.031 | rosiglitazone 0.125 | [12] -0.031 | [13] -0.356

EIPR1 (UniProt Q53HC9)
inactive: [1] -0.005 | [2] -0.051 | [3] 0.068 | [4] 0.004 | Nexturastat A 0.044 | vemurafenib 0.019 | [5] 0.042 | [6] 0.029 | givinostat 0.034 | barasertib 0.065 | [7] 0.034 | volasertib -0.063 | [8] 0.018 | epoxomicin 0.105 | [9] -0.026 | [10] -0.019 | [11] 0.033 | rosiglitazone -0.009 | [12] -0.008 | [13] -0.009

EIF3E (UniProt P60228)
inactive: [1] -0.021 | [2] -0.06 | [3] 0.048 | [4] -0.074 | Nexturastat A 0.248 | vemurafenib 0.074 | [5] 0.055 | [6] 0.109 | givinostat 0.149 | barasertib 0.099 | [7] 0.056 | volasertib -0.371 | [8] 0.155 | epoxomicin 0.089 | [9] -0.082 | [10] 0.09 | [11] 0.043 | rosiglitazone 0.09 | [12] 0.198 | [13] -0.047

ENGASE (UniProt Q8NFI3)
inactive: [1] -0.034 | [2] 0.073 | [3] 0.046 | [4] -0.052 | Nexturastat A 0.025 | vemurafenib -0.105 | [5] -0.025 | [6] -0.077 | givinostat 0.021 | barasertib 0.048 | [7] 0.022 | volasertib -0.046 | [8] 0.02 | epoxomicin -0.003 | [9] -0.013 | [10] -0.007 | [11] 0.028 | rosiglitazone 0.041 | [12] -0.064 | [13] -0.016

EIF3G (UniProt O75821)
inactive: [1] 0.017 | [2] -0.038 | [3] -0.03 | [4] -0.017 | Nexturastat A 0.069 | vemurafenib 0.02 | [5] 0.043 | [6] 0.04 | givinostat 0.055 | barasertib 0.007 | [7] -0.025 | volasertib -0.213 | [8] 0.028 | epoxomicin -0.026 | [9] -0.018 | [10] -0.013 | [11] 0.012 | rosiglitazone 0.019 | [12] 0.045 | [13] -0.129

EIF3C (UniProt Q99613)
inactive: [1] -0.027 | [2] -0.063 | [3] 0.024 | [4] -0.019 | Nexturastat A 0.259 | vemurafenib 0.024 | [5] 0.06 | [6] 0.075 | givinostat 0.137 | barasertib 0.071 | [7] -0.023 | volasertib -0.404 | [8] 0.103 | epoxomicin 0.065 | [9] -0.078 | [10] 0.019 | [11] 0.045 | rosiglitazone 0.066 | [12] 0.152 | [13] -0.06

EMC8 (UniProt O43402)
inactive: [1] 0.015 | [2] 0 | [3] -0.031 | [4] 0.012 | Nexturastat A -0.013 | vemurafenib 0.022 | [5] 0.007 | [6] 0.013 | givinostat -0.127 | barasertib 0.002 | [7] -0.027 | volasertib 0.039 | [8] 0.01 | epoxomicin 0.05 | [9] -0.004 | [10] 0.006 | [11] -0.012 | rosiglitazone 0.021 | [12] -0.061 | [13] -0.012
